Results taken from the supplement of paper PMC8728848.
The other results are listed elsewhere or left out.

Legend:
Assay in all cases: glycan array binding signal (z-score within array); higher = stronger binding
Settings in all cases: glycan notation: IUPAC condensed, linker removed
[1] = target: Neu5Ac(a2-3)Gal(b1-4)GlcNAc(b1-3)[Neu5Ac(a2-3)Gal(b1-4)GlcNAc(b1-6)]GalNAc
Method in brief: (§1)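 The Consortium for Functional Glycomics database supplied 3228 glycan arrays, of which those lacking an available protein sequence were dropped. The binding signal, a within-array Z-score, was averaged across arrays of the same protein sequence and across linkers. Negative scores can be read as non-binding.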

[2] = target: Neu5Ac(a2-3)Gal(b1-4)GlcNAc(b1-6)GalNAc
Method in brief: as §1

[3] = target: Neu5Ac(a2-3)Gal(b1-4)GlcNAc(b1-6)[Gal(b1-3)]GalNAc
Method in brief: as §1

[4] = target: Neu5Ac(a2-3)Gal(b1-4)GlcNAc(b1-6)[Neu5Ac(a2-3)Gal(b1-3)]GalNAc
Method in brief: as §1

[5] = target: Neu5Ac(a2-3)Gal(b1-4)GlcNAc6S
Method in brief: as §1

[6] = target: Neu5Ac(a2-3)Gal(b1-4)[Fuc(a1-3)]GlcNAc
Method in brief: as §1

[7] = target: Neu5Ac(a2-3)Gal(b1-4)[Fuc(a1-3)]GlcNAc(b1-2)Man
Method in brief: as §1

[8] = target: Neu5Ac(a2-3)Gal(b1-4)[Fuc(a1-3)]GlcNAc(b1-3)Gal
Method in brief: as §1

[9] = target: Neu5Ac(a2-3)Gal(b1-4)[Fuc(a1-3)]GlcNAc(b1-3)Gal(b1-4)GlcNAc
Method in brief: as §1

[10] = target: Neu5Ac(a2-3)Gal(b1-4)[Fuc(a1-3)]GlcNAc(b1-3)Gal(b1-4)[Fuc(a1-3)]GlcNAc(b1-3)Gal(b1-4)[Fuc(a1-3)]GlcNAc
Method in brief: as §1

[11] = target: Neu5Ac(a2-3)Gal(b1-4)[Fuc(a1-3)]GlcNAc(b1-3)GalNAc
Method in brief: as §1

[12] = target: Neu5Ac(a2-3)Gal(b1-4)[Fuc(a1-3)]GlcNAc(b1-6)[Gal(b1-3)]GalNAc
Method in brief: as §1

[13] = target: Neu5Ac(a2-3)Gal(b1-4)[Fuc(a1-3)]GlcNAc(b1-6)[Neu5Ac(a2-3)Gal(b1-3)]GalNAc
Method in brief: as §1

[14] = target: Neu5Ac(a2-3)Gal(b1-4)[Fuc(a1-3)]GlcNAc6S
Method in brief: as §1

[15] = target: Neu5Ac(a2-3)Gal6S(b1-4)GlcNAc
Method in brief: as §1

[16] = target: Neu5Ac(a2-3)Gal6S(b1-4)[Fuc(a1-3)]GlcNAc
Method in brief: as §1

Neu5Ac(a2-3)GalNAc = target: Neu5Ac(a2-3)GalNAc
Method in brief: as §1

[17] = target: Neu5Ac(a2-3)GalNAc(b1-4)GlcNAc
Method in brief: as §1

[18] = target: Neu5Ac(a2-3)[GalNAc(b1-4)]Gal(b1-4)Glc
Method in brief: as §1

[19] = target: Neu5Ac(a2-3)[GalNAc(b1-4)]Gal(b1-4)GlcNAc
Method in brief: as §1

[20] = target: Neu5Ac(a2-3)[GalNAc(b1-4)]Gal(b1-4)GlcNAc(b1-3)GalNAc
Method in brief: as §1

[21] = target: Neu5Ac(a2-3)[Neu5Ac(a2-6)]GalNAc
Method in brief: as §1

Neu5Ac(a2-6)Gal = target: Neu5Ac(a2-6)Gal
Method in brief: as §1

[22] = target: Neu5Ac(a2-6)Gal(b1-3)GlcNAc(b1-3)[Gal(b1-4)GlcNAc(b1-6)]Gal(b1-4)Glc
Method in brief: as §1

Neu5Ac(a2-6)Gal(b1-4)Glc = target: Neu5Ac(a2-6)Gal(b1-4)Glc
Method in brief: as §1

[23] = target: Neu5Ac(a2-6)Gal(b1-4)GlcNAc
Method in brief: as §1

[24] = target: Neu5Ac(a2-6)Gal(b1-4)GlcNAc(b1-2)Man
Method in brief: as §1

[25] = target: Neu5Ac(a2-6)Gal(b1-4)GlcNAc(b1-2)Man(a1-3)Man(b1-4)GlcNAc(b1-4)GlcNAc
Method in brief: as §1

[26] = target: Neu5Ac(a2-6)Gal(b1-4)GlcNAc(b1-2)Man(a1-3)[Gal(b1-4)GlcNAc(b1-2)Man(a1-6)]Man(b1-4)GlcNAc(b1-4)GlcNAc
Method in brief: as §1

[27] = target: Neu5Ac(a2-6)Gal(b1-4)GlcNAc(b1-2)Man(a1-3)[GlcNAc(b1-2)Man(a1-6)]Man(b1-4)GlcNAc(b1-4)GlcNAc
Method in brief: as §1

[28] = target: Neu5Ac(a2-6)Gal(b1-4)GlcNAc(b1-2)Man(a1-3)[GlcNAc(b1-4)][Neu5Ac(a2-6)Gal(b1-4)GlcNAc(b1-2)Man(a1-6)]Man(b1-4)GlcNAc(b1-4)GlcNAc
Method in brief: as §1

B1: AT5G17240(42) (Arabidopsis thaliana), Q6NQJ8 (protein)
chain: MDLEHQTMETFLRWAAEIGISDSIDSSRFRDSCLGHSLSVSDFPDAGGRGLGAARELKKGELVLKVPRKALMTTESIIAKDLKLSDAVNLHNSLSSTQILSVCLLYEMSKEKKSFWYPYLFHIPRDYDLLATFGNFEKQALQVEDAVWATEKATAKCQSEWKEAGSLMKELELKPKFRSFQAWLWASATISSRTLHVPWDSAGCLCPVGDLFNYDAPGDYSNTPQGPESANNVEEAGLVVETHSERLTDGGFEEDVNAYCLYARRNYQLGEQVLLCYGTYTNLELLEHYGFMLEENSNDKVFIPLETSLFSLASSWPKDSLYIHQDGKLSFALISTLRLWLIPQSQRDKSVMRLVYAGSQISVKNEILVMKWMSEKCGSVLRDLPTSVTEDTVLLHNIDKLQDPELRLEQKETEAFGSEVRAFLDANCLWDVTVLSGKPIEFSRKTSRMLSKWRWSVQWRLSYKRTLADCISYCNEKMNNLLGTQDRLRDL
glycan array binding signal (z-score) [1]: -0.746 | glycan array binding signal (z-score) [2]: -0.17 | glycan array binding signal (z-score) [3]: -0.303 | glycan array binding signal (z-score) [4]: -0.407 | glycan array binding signal (z-score) [5]: -0.431 | glycan array binding signal (z-score) [6]: 0.101 | glycan array binding signal (z-score) [7]: -0.125 | glycan array binding signal (z-score) [8]: -0.567 | glycan array binding signal (z-score) [9]: 0.975 | glycan array binding signal (z-score) [10]: 0.322 | glycan array binding signal (z-score) [11]: 1.21 | glycan array binding signal (z-score) [12]: 0.175 | glycan array binding signal (z-score) [13]: -0.292 | glycan array binding signal (z-score) [14]: 0.026 | glycan array binding signal (z-score) [15]: 0.183 | glycan array binding signal (z-score) [16]: -0.198 | glycan array binding signal (z-score) (Neu5Ac(a2-3)GalNAc): 0.058 | glycan array binding signal (z-score) [17]: -0.931 | glycan array binding signal (z-score) [18]: -0.783 | glycan array binding signal (z-score) [19]: -0.325 | glycan array binding signal (z-score) [20]: -0.397 | glycan array binding signal (z-score) [21]: 0.005 | glycan array binding signal (z-score) (Neu5Ac(a2-6)Gal): 0.474 | glycan array binding signal (z-score) [22]: -0.591 | glycan array binding signal (z-score) (Neu5Ac(a2-6)Gal(b1-4)Glc): -0.14 | glycan array binding signal (z-score) [23]: 0.396 | glycan array binding signal (z-score) [24]: -0.252 | glycan array binding signal (z-score) [25]: 0.067 | glycan array binding signal (z-score) [26]: -0.171 | glycan array binding signal (z-score) [27]: 0.18 | glycan array binding signal (z-score) [28]: -0.727
